Results taken from US7776863B2, “Methods of treating HIV infection” (priority 2004, dated 2010).
At least one compound was matched to its structure with a doubt left.

Tested on: HIV-1 LAI
Details: Compound 1 + named drug, all ratios, MT-2 cells
Procedure: Virus and cell lines. The T-cell lines, MT-2 and PM-1 were obtained through the AIDS Research and Reference Reagent Program, NIAID, and were contributed by Dr. D. Richman and Dr. R. Gallo, respectively. Both cell lines were cultured in RPMI 1640 medium supplemented with 10% fetal bovine serum, 2 mM L-glutamine and sub-cultured twice a week. The LAI strain of HIV-1 was obtained from the Fred Hutchinson Cancer Research Center, and the Bal strain was from NIH. Both virus stocks were amplified and titered in MT-2 cells (LAI) and PM-1 cells (Bal) using a virus infectivity assay.
Drug Susceptibility and Cytotoxicity Assays. […] On day-five post-infection, 20 μl from each well was harvested and quantitated by a reverse transcriptase (RT) assay, or in samples involving non-nucleoside RT inhibitors, an MTS assay. […] On day-six post-infection, 20 μl from each well was harvested, 20- and 50-fold diluted and quantitated by p24 assay. […] Cell viability was determined by an MTS assay. The CC50 values were calculated by using the exponential form of the median effect equation as mentioned below for calculation of EC50.
Analysis of Drug Combination Effects. For determination of CI values, drugs were diluted in a fixed ratio and multiple ratios were analyzed. […]
To assess antiviral effects of different drug combination treatments, combination indices (CIs) were calculated according to Chou and Rideout. […]

## Nc1ccn([C@@H]2CS[C@H](CO)O2)c(=O)n1 [Lamivudine, lamivudine]
  Overall Result (combined anti-HIV effect): Additive-
